The values below come from article PMC6166128.

Amino acid sequences for entries named in this document (tags omitted). A change or cut given only in a name is not applied to a line headed by its entry.
UniProt P13382: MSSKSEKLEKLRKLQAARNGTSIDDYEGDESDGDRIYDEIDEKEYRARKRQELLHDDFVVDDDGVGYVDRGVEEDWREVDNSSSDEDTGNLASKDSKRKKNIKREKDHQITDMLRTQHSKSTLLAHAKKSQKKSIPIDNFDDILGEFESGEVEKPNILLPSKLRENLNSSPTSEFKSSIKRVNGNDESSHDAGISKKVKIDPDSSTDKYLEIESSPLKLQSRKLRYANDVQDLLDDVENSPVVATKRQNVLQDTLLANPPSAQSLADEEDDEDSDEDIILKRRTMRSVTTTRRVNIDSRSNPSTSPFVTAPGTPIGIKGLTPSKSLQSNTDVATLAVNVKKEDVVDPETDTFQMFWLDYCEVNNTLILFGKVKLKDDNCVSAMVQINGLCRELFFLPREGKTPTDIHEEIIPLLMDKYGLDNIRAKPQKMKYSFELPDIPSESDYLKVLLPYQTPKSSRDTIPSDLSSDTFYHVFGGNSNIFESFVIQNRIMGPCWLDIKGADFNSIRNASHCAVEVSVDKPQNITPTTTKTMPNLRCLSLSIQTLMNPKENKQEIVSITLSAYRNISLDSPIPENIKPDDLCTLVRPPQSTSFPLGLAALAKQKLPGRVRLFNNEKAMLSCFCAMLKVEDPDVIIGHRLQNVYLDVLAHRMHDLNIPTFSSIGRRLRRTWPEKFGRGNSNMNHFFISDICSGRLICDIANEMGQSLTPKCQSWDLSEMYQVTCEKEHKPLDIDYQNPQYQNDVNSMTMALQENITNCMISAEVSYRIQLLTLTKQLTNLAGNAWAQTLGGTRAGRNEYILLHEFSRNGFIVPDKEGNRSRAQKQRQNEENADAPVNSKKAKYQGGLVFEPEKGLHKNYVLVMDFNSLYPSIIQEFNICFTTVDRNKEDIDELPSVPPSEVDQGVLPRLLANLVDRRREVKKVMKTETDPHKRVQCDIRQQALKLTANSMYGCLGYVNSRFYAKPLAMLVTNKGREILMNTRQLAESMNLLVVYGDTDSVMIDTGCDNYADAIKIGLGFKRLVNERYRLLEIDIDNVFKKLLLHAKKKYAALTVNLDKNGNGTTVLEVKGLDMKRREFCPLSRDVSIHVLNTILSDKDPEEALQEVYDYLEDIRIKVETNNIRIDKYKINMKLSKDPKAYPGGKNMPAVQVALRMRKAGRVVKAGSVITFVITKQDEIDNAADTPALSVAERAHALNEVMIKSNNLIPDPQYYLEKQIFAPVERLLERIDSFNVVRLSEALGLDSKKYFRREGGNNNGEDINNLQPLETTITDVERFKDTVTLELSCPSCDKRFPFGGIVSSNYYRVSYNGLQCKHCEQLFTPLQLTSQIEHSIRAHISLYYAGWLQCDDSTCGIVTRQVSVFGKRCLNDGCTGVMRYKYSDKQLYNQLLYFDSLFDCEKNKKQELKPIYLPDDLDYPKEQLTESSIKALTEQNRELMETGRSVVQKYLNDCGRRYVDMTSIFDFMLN

The target in this assay is T1, TAP-Sld5 (CMG helicase component Sld5) (S. cerevisiae) (UniProt Q03406).
T1 sequence: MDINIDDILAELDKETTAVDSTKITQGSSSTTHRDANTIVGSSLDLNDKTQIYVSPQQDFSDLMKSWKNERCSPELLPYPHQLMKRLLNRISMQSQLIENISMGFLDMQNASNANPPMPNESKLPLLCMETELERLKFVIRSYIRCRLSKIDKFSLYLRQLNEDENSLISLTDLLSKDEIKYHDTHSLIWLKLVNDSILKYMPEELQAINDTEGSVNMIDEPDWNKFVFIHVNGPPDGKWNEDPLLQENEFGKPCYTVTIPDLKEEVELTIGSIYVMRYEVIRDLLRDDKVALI
Nature of the assay: co-IP; TAP-Sld5 isolated on IgG-coated magnetic beads from extracts of yeast cells in G1-phase or 30' into S-phase (24°C); Universal nuclease 400 U/ml; 100 mM Hepes-KOH pH 7.9, 100 mM KOAc; associated replisome components by immunoblot. (Immunoblotting shows a protein as a band on a membrane.)

No constants are given. Whether binding was seen depends on the method and setting. In cells and extracts the contact can be indirect. Binding calls can cover weak binding; strength is not graded here.

Regarding “Pol1-4A (Pol1 with mutated CIP-box, from pol1-4A cells) (from UniProt P13382)”, the binding entry is on record as “binds weakly”.
